Data as given in PubChem BioAssay AID1259424 (University of Nebraska Medical Center, 2018).
Here is a random part of about 14,000 reagents. 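Higher correlation or smaller distance means closer resemblance to KSR1 loss; control wells, including KSR1 knockdowns, recur on many plates.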 Further read-outs or replicates are left out here. The record does not give: the time to read-out.

Purpose: 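Find knockdowns that reproduce the expression shifts seen after KSR1 loss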 (primary screen)
Cell system: human HCT116 colon cancer cells
Knock-down reagent: siRNA pool against human genes, 50 nM
Measurement: 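Log2 levels of six mRNAs (branched-DNA multiplex), adjusted by two reference genes and the non-targeting median, then scored against the average KSR1 knockdown pattern as Pearson r and euclidean distance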
Scale: mean correlation with KSR1 profile: higher = expression change more like KSR1 knockdown

Knock-down of RBM28 (RNA binding motif protein 28) gave: mean correlation with KSR1 profile 0.183. Depletion of PPP1R15B (protein phosphatase 1 regulatory subunit 15B) came out at: mean correlation with KSR1 profile 0.227. Silencing of RFPL3 (ret finger protein like 3) came out at: mean correlation with KSR1 profile 0.113. CHP2 (calcineurin like EF-hand protein 2) showed mean correlation with KSR1 profile 0.495. With knock-down of RPN2 (ribophorin II) the results were mean correlation with KSR1 profile -0.265. With knock-down of CHD4 (chromodomain helicase DNA binding protein 4) the results were mean correlation with KSR1 profile -0.438.

After knock-down of CDX2 (caudal type homeobox 2), the record shows mean correlation with KSR1 profile 0.394.

Ordered by “mean correlation with KSR1 profile” (high to low): 2 of the entries above
PPP1R15B (protein phosphatase 1 regulatory subunit 15B) — mean correlation with KSR1 profile: 0.227
RFPL3 (ret finger protein like 3) — mean correlation with KSR1 profile: 0.113

Additional results follow.
With knock-down of PCDHGA12 (protocadherin gamma subfamily A, 12), the record shows mean correlation with KSR1 profile 0.316. Against MID1 (midline 1) the deposit lists mean correlation with KSR1 profile -0.442. After knock-down of ASPM (assembly factor for spindle microtubules), the screen gave mean correlation with KSR1 profile -0.569. After knock-down of SCRIB (scribble planar cell polarity protein), the record shows mean correlation with KSR1 profile 0.0961. Knock-down of HERPUD2 (HERPUD family member 2) gave: mean correlation with KSR1 profile -0.401.
